This is an account of results in PMC9964033.

By UniProt entry, the sequences of proteins in these tests, tags left out.
UniProt P63073: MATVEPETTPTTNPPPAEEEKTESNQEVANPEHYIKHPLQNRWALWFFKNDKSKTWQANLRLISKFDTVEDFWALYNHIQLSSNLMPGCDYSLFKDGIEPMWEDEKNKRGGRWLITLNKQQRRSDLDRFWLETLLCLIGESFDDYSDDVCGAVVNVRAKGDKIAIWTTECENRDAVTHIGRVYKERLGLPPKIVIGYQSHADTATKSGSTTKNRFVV

No constants are given. Whether binding was seen depends on the method and setting. In cells and extracts the contact can be indirect. These calls come from enrichment with a bait or labelling near it, and not all partners need be listed. For some assays here: Sequences can lack the tags named with a protein.

Experiment [1] addresses T1, CPEB3-HA expressed in mouse primary cortical neurons under a human synapsin promoter (mouse) (UniProt Q7TN99).
T1 sequence: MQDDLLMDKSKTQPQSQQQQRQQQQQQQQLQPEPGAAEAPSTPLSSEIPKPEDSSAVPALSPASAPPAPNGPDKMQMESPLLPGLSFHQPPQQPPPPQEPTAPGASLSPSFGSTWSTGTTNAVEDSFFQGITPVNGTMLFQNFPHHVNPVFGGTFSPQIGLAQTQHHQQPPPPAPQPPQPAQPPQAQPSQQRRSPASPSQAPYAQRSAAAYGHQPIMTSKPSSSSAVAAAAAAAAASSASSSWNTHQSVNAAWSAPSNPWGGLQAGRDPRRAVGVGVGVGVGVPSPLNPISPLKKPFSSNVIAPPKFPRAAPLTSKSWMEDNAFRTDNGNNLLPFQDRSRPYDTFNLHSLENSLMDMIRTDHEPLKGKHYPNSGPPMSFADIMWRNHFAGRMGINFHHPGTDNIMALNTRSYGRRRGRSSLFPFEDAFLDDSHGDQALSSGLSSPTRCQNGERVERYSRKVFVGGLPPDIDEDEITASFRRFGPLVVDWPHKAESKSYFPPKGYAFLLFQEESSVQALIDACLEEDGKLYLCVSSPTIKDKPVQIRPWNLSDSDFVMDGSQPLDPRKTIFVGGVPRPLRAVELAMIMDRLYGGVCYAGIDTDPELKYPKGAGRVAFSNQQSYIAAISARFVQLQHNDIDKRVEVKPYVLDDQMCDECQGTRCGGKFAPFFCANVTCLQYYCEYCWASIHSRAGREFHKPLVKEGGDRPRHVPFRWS
Nature of the experiment: affinity purification with mass spectrometry; CPEB3-HA expressed in mouse primary cortical neurons under a human synapsin promoter, immunoprecipitated via the HA tag, on-bead trypsin digestion, LC-MS/MS; three samples.

Experiment [2] concerns the target T2, CPEB3 (full-length), expressed in mouse neuroblastoma N2A cells (mouse) (UniProt Q7TN99).
T2 sequence: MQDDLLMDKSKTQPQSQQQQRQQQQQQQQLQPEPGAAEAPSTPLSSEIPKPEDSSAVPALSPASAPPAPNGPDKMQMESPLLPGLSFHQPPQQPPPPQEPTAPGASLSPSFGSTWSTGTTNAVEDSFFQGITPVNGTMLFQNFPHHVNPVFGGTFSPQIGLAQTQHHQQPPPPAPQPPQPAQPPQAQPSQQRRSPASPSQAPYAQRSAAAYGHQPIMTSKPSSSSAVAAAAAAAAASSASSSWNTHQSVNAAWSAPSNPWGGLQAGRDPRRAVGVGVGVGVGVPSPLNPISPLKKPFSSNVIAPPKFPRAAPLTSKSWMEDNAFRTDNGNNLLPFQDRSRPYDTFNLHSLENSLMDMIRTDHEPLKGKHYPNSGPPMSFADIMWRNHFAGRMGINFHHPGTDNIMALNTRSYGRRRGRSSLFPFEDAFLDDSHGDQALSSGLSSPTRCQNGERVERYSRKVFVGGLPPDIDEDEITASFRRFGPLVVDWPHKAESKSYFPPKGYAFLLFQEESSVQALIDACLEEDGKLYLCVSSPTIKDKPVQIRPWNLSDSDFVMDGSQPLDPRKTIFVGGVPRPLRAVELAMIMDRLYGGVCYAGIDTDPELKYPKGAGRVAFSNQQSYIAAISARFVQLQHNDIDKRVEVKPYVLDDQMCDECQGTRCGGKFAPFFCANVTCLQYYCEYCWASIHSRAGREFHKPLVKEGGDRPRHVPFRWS
Description: affinity purification with mass spectrometry; interactomes of N2A-expressed CPEB3 and S240-242A compared (Fischer's test); immunoprecipitation from RIPA + NEM lysate, LC-MS/MS.

Turning to “eIF4e (mouse neurons) (from UniProt P63073 1-217)”, the binding result in experiment [1] is listed as “binds”.

B1: Sept6 (protein, UniProt Q9R1T4 1-434)
chain: MAAADIARQVGEDCRTVPLAGHVGFDSLPDQLVNKSVSQGFCFNILCVGETGLGKSTLMDTLFNTKFEGEPATHTQPGVQLQSNTYDLQESNVGLKLTIVSTVGFGDQINKEDSYKPIVEFIDAQFEAYLQEELKIRRVLHSYHDSRIHVCLYFIAPTGHSLKSLDLVTMKKLDSKVNIIPVIAKSDAISKSELAKFKIKITSELVSNGVQIYQFPTDDESVSEINGTMNAHLPFAVVGSTEEVKIGNKMMRARQYPWGTVQVENEAHCDFVKLREMLIRVNMEDLREQTHARHYELYRRCKLEEMGFKDTDPDSKPFSLQETYEAKRNEFLGELQKKEEEMRQMFVQRVKEKEAELKEAEKELHEKFDRLKKLHQEEKKKLEDKKKCLDEEMNAFKQRKAAAELLQSQGSQAGGSQTLKRDKEKKNNPWLCIE
In the case of B1, the binding entry in experiment [2] is “binds”.

B2: Utp23 (protein, UniProt Q9CX11 1-249)
chain: MKITRQKHAKKHLGFFRNNFGVREPYQILLDGTFCQAALRGRIQLRDQLPRYLMGETQLCTTRCVLKELETLGKELYGAKLIAQKCQVRNCPHFKSPVSGSECLLSMVDEGNPHHYFVATQDQNLSVKVKRTPGIPLMFIIQNTIVLDKPSPRTVAFVKAVEAGQLVSVHEKQSIKQLKEEQGLVRNPDLRRRRRKKKKVGGPNPLSCLKKKKKAQDTKSPASEKKRKRKRIRNRSTLKVSSEQQGAEG
As for B2, in experiment [2], the binding result was “binds”.

B3: Mms19 (protein, UniProt Q9D071 1-1031)
chain: MAAATGLEEAVAPMGALCGLVQDFVMGQQEGPADQVAADVKSGGYTVLQVVEALGSSLENAEPRTRARGAQLLSQVLLQCHSLLSEKEVVHLILFYENRLKDHHLVVPSVLQGLRALSMSVALPPGLAVSVLKAIFQEVHVQSLLQVDRHTVFSIITNFMRSREEELKGLGADFTFGFIQVMDGEKDPRNLLLAFRIVHDLISKDYSLGPFVEELFEVTSCYFPIDFTPPPNDPYGIQREDLILSLRAVLASTPRFAEFLLPLLIEKVDSEILSAKLDSLQTLNACCAVYGQKELKDFLPSLWASIRREVFQTASERVEAEGLAALHSLTACLSCSVLRADAEDLLGSFLSNILQDCRHHLCEPDMKLVWPSAKLLQAAAGASARACEHLTSNVLPLLLEQFHKHSQSNQRRTILEMILGFLKLQQKWSYEDRDERPLSSFKDQLCSLVFMALTDPSTQLQLVGIRTLTVLGAQPGLLSAEDLELAVGHLYRLTFLEEDSQSCRVAALEASGTLATLYPGAFSRHLLPKLAEELHKGESDVARADGPTKCSRHFRCLQALSAVSTHPSIVKETLPLLLQHLCQANKGNMVTESSEVVAVCQSLQQVAEKCQQDPESYWYFHKTAVPCLFALAVQASMPEKESSVLRKVLLEDEVLAALASVIGTATTHLSPELAAQSVTCIVPLFLDGNTSFLPENSFPDQFQPFQDGSSGQRRLVALLTAFVCSLPRNVEIPQLNRLMRELLKQSCGHSCPFSSTAATKCFAGLLNKQPPGQQLEEFLQLAVGTVEAGLASESSRDQAFTLLLWVTKALVLRYHPLSACLTTRLMGLLSDPELGCAAADGFSLLMSDCTDVLTRAGHADVRIMFRQRFFTDNVPALVQGFHAAPQDVKPNYLKGLSHVLNRLPKPVLLPELPTLLSLLLEALSCPDSVVQLSTLSCLQPLLLEAPQIMSLHVDTLVTKFLNLSSSYSMAVRIAALQCMHALTRLPTSVLLPYKSQVIRALAKPLDDKKRLVRKEAVSARGEWFLLGSPGS
Take B3: in experiment [2], the binding result is given as “binds”.

B4: Nek9 (protein, UniProt Q8K1R7 1-984)
chain: MSVLGEYERHCDSINSDFGSESGGGGDSGPGPSAVPGPRAGGGAAEQEELHYIPIRVLGRGAFGEATLYRRTEDDSLVVWKEVDLTRLSEKERRDALNEIVILALLQHDNIIAYYNHFMDNTTLLIELEYCNGGNLYDKILRQKDKLFEEEMVVWYLFQIVSAVSCIHKAGILHRDIKTLNIFLTKANLIKLGDYGLAKKLNSEYSMAETLVGTPYYMSPELCQGVKYNFKSDIWAVGCVIFELLTLKRTFDATNPLNLCVKIVQGIRAMEVDSSQYSLELIQLVHACLDQDPEQRPAADALLDLPLLRTRRREMEEKVTLLNAPTKRPRSSTVTEAPIAVVTSRTSEVYVWGGGKSTPQKLDVIKSGCSARQVCAGNTHFAVVTVEKELYTWVNMQGGTKLHGQLGHGDKASYRQPKHVEKLQGKAIHQVSCGDDFTVCVTDEGQLYAFGSDYYGCMGVDKVSGPEVLEPMQLNFFLSNPVEQVSCGDNHVVVLTRNKEVYSWGCGEYGRLGLDSEEDYYTPQRVDVPKALIIVAVQCGCDGTFLLTQSGKVLACGLNEFNKLGLNQCMSGIINHEAYHEVPYTTSFTLAKQLSFYKIRTIAPGKTHTAAIDERGRLLTFGCNKCGQLGVGNYKKRLGINLLGGPLGGKQVIRVSCGDEFTIAATDDNHIFAWGNGGNGRLAMTPTERPHGSDICTSWPRPIFGSLHHVPDLSCRGWHTILIVEKVLNSKTIRSNSSGLSIGTVVQSSSPGGGIGGGGGGGGGGGGEEEDSQQESETPDPSGGFRGTMEADRGMEGLISPTEAVGNSCGASSSCPGWLRKELENAEFIPMPDSPAPLSAAFSQSEKDTLPYEELQGLKVASEVPPEPQRAAGAWPPRLDPAVPCVGKALTSAACACSALQVEVDRLQALVLKCLEEQQKLQQENLQMFTQLQKLNKKLEGGQQVGMHSRGTQTAKEEMEMDPKPDLDSESWCLLGTDSCRPSL
Take B4: the binding entry in experiment [2] is reported as “binds”.

B5: Vapa (protein, UniProt Q9WV55 1-249)
chain: MASASGAMAKHEQILVLDPPSDLKFKGPFTDVVTTNLKLQNPSDRKVCFKVKTTAPRRYCVRPNSGIIDPGSIVTVSVMLQPFDYDPNEKSKHKFMVQTIFAPPNISDMEAVWKEAKPDELMDSKLRCVFEMPNENDKLNDMEPSKAVPLNASKQDGPLPKPHSVSLNDTETRKLMEECKRLQGEMMKLSEENRHLRDEGLRLRKVAHSDKPGSTSAVSFRDNVTSPLPSLLVVIAAIFIGFFLGKFIL
As to B5, in experiment [2], the binding entry was “binds”.

B6: Srp14 (protein, UniProt P16254 1-110)
chain: MVLLESEQFLTELTRLFQKCRSSGSVFITLKKYDGRTKPIPRKSSVEGLEPAENKCLLRATDGKRKISTVVSSKEVNKFQMAYSNLLRANMDGLKKRDKKNKSKKSKPAQ
On to B6, for which, in experiment [2], the binding entry is “binds”.

B7: Tsr1 (protein, UniProt Q5SWD9 1-803)
chain: MAAHRSGPLKQQNKAHKGGRHHGGGSAQRDSKGRVGPKILCKKLKRQLSRIDQRHRASQLRKQKRESVLAEKRQLGSKDGPPHQVLVVPLHSRISLPEAFKLLQNEDLGTVYLSERGSTQSFMLLCPSLKHRWFFTYARPGDLHTLLDMAKVADTILFLLDPLEGWDSTGDYCLSCLFAQGLPTYTLAVQGLSGFPPKKQIDARKKLSKMVEKRFPEDKLLLLDTQQESGMLLRQLANQKQRHLAFRDRRAYLFAHVADFVPSEESDLVGTLKISGYVRGRTLNVNSLLHIVGHGDFQMNQIDAPVDPFPLNPRVIKSQKKPNMAMEVCVTDAAPDMEEDLKVLMKADPDHQESLQTEAIPDPMEGEQTWPTEEELDEADDLLKQRSRVVKKVPKGTSSYQAEWILDEGDESDGEGGEYDDIQHEGFMEEESQDGSGEEEEEECETMTLGESVRDDLYDEKVDAEDEERMLEKYKQERLEEMFPDEMDTPRDVAARIRFQKYRGLKSFRTSPWDPKENLPRDYARIFQFQNFVNTRKRIFKEIEEKEAEGAEVGWYVTLHVSDVPVSVVEYFRQGAPLIAFSLLPYEQKMSVLNMVVSRNPGNTEPVKAKEELIFHCGFRRFRASPLFSQHTAADKHKFQRFLTADAAFVVTVFAPITFPPASVLLFKQRRNGMHSLIATGHLFSVDPDRMVIKRVVLSGHPFKIFTKMAVVRYMFFNREDVMWFKPVELRTKWGRRGHIKEPLGTHGHMKCSFDGKLKSQDTVLMNLYKRVFPKWTYDPYVPEPVPWVKSDISSTVSEVDME
Consider B7, for which the binding result in experiment [2] is “binds”.
